Measurements reported in PubChem BioAssay AID2685 (National Center for Advancing Translational Sciences (NCATS), 2010).
In all, about 320,000 compounds went through this assay and about 2,100 (0.66%) were called active. Inconclusive means that the source gave no clear call. Such entries were picked first, then a sample of the others. The call rests on the fitted dose curve; in most records, active means well fitted inhibition curve with a large enough effect in the signal ratio, with a control signal flat (not every such curve was filed as active); inconclusive means small, poorly fitted or top-dose-only effect, or effect the other way, or a change in a side signal; inactive means flat fitted curve, though single readings scatter; the % refers to the signal ratio. A potency beside an inconclusive call is a rough fit, not a confirmed value.

assay: qHTS Assay for Lipid Storage Modulators in Drosophila S3 Cells; settings: BODIPY lipid droplet fluorescence, 18-24 h, cells fed with added oleic acid; lipid storage change, negative = inhibition: at 46.1 µM (top of the series) unless noted
Summary of the method: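 Drosophila S3 cells got compounds at several concentrations plus oleic acid (400 uM solution). Laser-scanning cytometry with 488 nm excitation read lipid droplets at 500-530 nm and cells at 575-640 nm. Percent activity was relative to 20 uM Triacsin C.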
On the % scale 0 is the no-effect control and ±100 the full control effect; potency means the concentration at half of the fitted maximal effect.

| SMILES | Potency | lipid storage change, negative = inhibition |
| --- | --- | --- |
| COc1cc(CCC(=O)OCC(=O)Nc2ccc(F)c(F)c2)cc(OC)c1OC | inconclusive: 5.8 µM [activator, single point] | – |
| CC(C)(C)c1ccccc1NC(=S)NC1CCCC1 | – | inconclusive: 6.67% |
| CCNc1nnc(SCC(=O)N2c3ccccc3NC(=O)CC2C)s1 (configuration not stated) | – | inconclusive: 35.1% |
| Cc1ccccc1OCC(=O)NC(=S)Nc1ccc2c3c(cccc13)CC2 | – | inconclusive: 14.7% |
| COc1cc(CCC(=O)NCc2ccc(F)cc2)cc(OC)c1OC | – | inconclusive: -4.94% |
| CCOc1ccc2c(C)cc(=O)oc2c1OCC | – | inconclusive: -22.5% |
| O=[N+]([O-])c1ccc(Oc2ccc(-c3nnco3)cc2)c(Cl)c1 | – | inconclusive: -4.81% |
| CCN(CCCNC(=O)CCC(=O)N1CCOc2ccccc21)Cc1ccccc1 | – | inconclusive: -29.1% |
| CCOC(=O)CC(=O)Nc1cc(Cl)ccc1O | inconclusive: 29.1 µM [falling, single point] | – |
| Nc1nc(SCC(=O)NC2CCCCC2)n[nH]1 | – | inconclusive: -1.12% |
| O=C(N/N=C/c1sc(N2CCOCC2)nc1-c1ccccc1)c1ccc(O)cc1 | inconclusive: 29.1 µM [falling, single point] | – |
| COc1ccc(CCNC(=O)c2ccc3nc[nH]c3c2)cc1 | inconclusive: 0.0046 µM [activator, full curve, poor fit] | – |
| CCOC(=O)c1cnc2nc(SC)nn2c1N | – | inconclusive: -34.3% |
| COc1ccc(S(=O)(=O)N(C)C)cc1NS(=O)(=O)c1ccc(F)c(F)c1F | – | inconclusive: -8.92% |
| Cc1c(NC(=O)c2ccc(NS(=O)(=O)c3ccccc3)cc2)c(=O)n(-c2ccccc2)n1C | inconclusive: 29.1 µM [falling, single point] | – |
| CSc1nc(C)c(CCOCc2ccc(F)cc2)c(=O)[nH]1 | – | inconclusive: -83% |
| Cc1cc(C)c(/C=N/n2c(C)cc(C)c(C#N)c2=O)c(C)c1 | – | inconclusive: 2.74% |
| CC12CC3CC(C)(C1)CC(C(=O)N1CCN(C(=O)c4ccco4)CC1)(C3)C2 | – | inconclusive: -22.4% |
| CCOC(=O)c1cc2c(nc1N)CCCC2 | inconclusive: 0.411 µM [activator, full curve, poor fit] | – |
| C/C(=N\NC(=O)CSc1nc2ccccc2c(=O)n1-c1ccccc1C)c1cccs1 | inconclusive: 0.517 µM [activator, full curve] | – |
| O=C(Cc1n[nH]c(=O)c2ccccc12)OCC(=O)c1ccc2c(c1)OCCO2 | – | inconclusive: 14.5% |
| C[C@H](O)[C@H](O)[C@H]1CNc2nc(N)[nH]c(=O)c2N1 | – | inconclusive: -6.26% |
| CCOC(=O)C1CCCN(c2ncnc3c2cnn3-c2cccc(C)c2)C1 (configuration not stated) | – | inconclusive: 12% |
| CNC(=S)N1N=C(c2ccc(C)cc2)CC1c1cc(OC)ccc1OC (configuration not stated) | – | inconclusive: 11.4% |
| O=C(O)CCN1c2cccc3cccc(c23)S1(=O)=O | inconclusive: 29.1 µM [falling, single point] | – |
| Cc1cccc(NC(=O)COC(=O)c2ccccc2SCC(=O)N2CCCC2)c1 | inconclusive: 14.6 µM [falling, partial curve, poor fit] | – |

| SMILES | Potency | lipid storage change, negative = inhibition |
| --- | --- | --- |
| Cc1nc(CNS(=O)(=O)c2cccs2)cs1 | inconclusive: 25.9 µM [cytotoxic, partial curve] | – |
| CCCC(=O)N1CCN(c2ccc(NC(=O)c3ccco3)cc2)CC1 | – | inconclusive: 18% |
| Cc1nc2ncnn2c(C)c1Cc1cccc(C(F)(F)F)c1 | – | inconclusive: 16.4% |
| Cc1ccc(OC(F)F)c(NC(=O)Nc2ccc3c(c2)OCO3)c1 | inconclusive: 6.51 µM [activator, single point] | – |
| O=C(CNC(=O)c1ccccc1)NCC(=O)OCC(=O)c1ccccc1Cl | inconclusive: 16.4 µM [activator, partial curve] | – |
| CCc1nnc(NC(=O)C2CCCN2C(=O)Nc2ccccc2OC)s1 (configuration not stated) | inconclusive: 0.291 µM [falling, full curve, poor fit] | – |
| Cc1ccc(C2C=NN(c3ccccc3)C2=O)cc1 (configuration not stated) | inconclusive: 29.1 µM [activator, single point] | – |
| O=c1c(F)cn(C2CCCO2)c(=O)n1Cc1ccccc1F (configuration not stated) | – | inconclusive: 22.1% |
| Cc1ccc(CNC(=O)CN2C(=O)COc3ccc(C)cc32)cc1 | – | inconclusive: -0.878% |
| Cc1ccc(C)c(NC(=O)c2cc(-c3cc(C)cc(C)c3O)n[nH]2)c1 | – | inconclusive: -22% |
| O=S(=O)(c1ccc2ccccc2c1)N1CCN(C2CCN(Cc3ccccc3)CC2)CC1 | active: 5.8 µM | – |
| CCN(CC)S(=O)(=O)c1ccc(Cl)c(C(=O)OC2CC(C)OC2=O)c1 (configuration not stated) | inconclusive: 4.61 µM [activator, full curve, poor fit] | – |
| Cn1c(=O)[nH]c(Nc2ccccc2)c([N+](=O)[O-])c1=O | inconclusive: 0.0058 µM [falling, full curve, poor fit] | – |
| O=C(Nc1ccncc1)C1CC1c1ccccc1 (configuration not stated) | inconclusive: 6.51 µM [activator, single point] | – |
| Cn1c(CCN2CCOCC2)nc2cc(NS(=O)(=O)c3ccccc3)ccc21 | – | inconclusive: -22.8% |
| CCc1ccc(NC(=O)C(C)OC(=O)C2CCN(c3ccc(C(F)(F)F)cn3)CC2)cc1 (configuration not stated) | – | inconclusive |
| COc1ccc(-n2c(C)nc3cc(C(=O)NCc4ccc5c(c4)OCO5)ccc32)cc1 | – | inconclusive: 30.6% |
| CCCc1cc(C(=O)Nc2cccc([N+](=O)[O-])c2)cs1 | active: 20 µM | – |
| COc1cc2c(cc1OC)C1OC(c3ccsc3)(C2)Oc2cc(C)oc(=O)c21 (configuration not stated) | – | inconclusive: -7.4% [at 9.22 µM] |
| O=C(CCc1ccc(Oc2cc([N+](=O)[O-])cc([N+](=O)[O-])c2)cc1)N1CCCCC1 | – | inconclusive: -46.5% |
| O=C(CCOc1ccccc1)NCc1ccccc1 | – | inconclusive: -67.3% |
| O=C(CN1CCCC1)N1c2ccccc2C=Cc2ccccc21 | – | inactive: 8.55% |
| Cc1ccc2c(CN(C)Cc3ccc(Cl)cc3Cl)cc(=O)oc2c1 | – | inconclusive: 111% |
| COc1ccc2nc(COC(=O)c3cccc([N+](=O)[O-])c3)c(C(C)=O)[n+]([O-])c2c1 | – | inconclusive: 9.29% |
| COc1ccc(-n2c(Cc3cc(=O)[nH]c(=O)[nH]3)nnc2SCC(=O)Nc2ccccc2)cc1 | – | inconclusive: -15.6% |
| CCCCCCSc1nsc(N)n1 | inconclusive: 20.6 µM [activator, partial curve] | – |

5 successive entries out of the list so far, quoted:

| SMILES | Potency | lipid storage change, negative = inhibition |
| --- | --- | --- |
| Cc1ccc(C2C=NN(c3ccccc3)C2=O)cc1 (configuration not stated) | inconclusive: 29.1 µM [activator, single point] | – |
| O=c1c(F)cn(C2CCCO2)c(=O)n1Cc1ccccc1F (configuration not stated) | – | inconclusive: 22.1% |
| Cc1ccc(CNC(=O)CN2C(=O)COc3ccc(C)cc32)cc1 | – | inconclusive: -0.878% |
| Cc1ccc(C)c(NC(=O)c2cc(-c3cc(C)cc(C)c3O)n[nH]2)c1 | – | inconclusive: -22% |
| O=S(=O)(c1ccc2ccccc2c1)N1CCN(C2CCN(Cc3ccccc3)CC2)CC1 | active: 5.8 µM | – |

(next part)

| SMILES | Potency | lipid storage change, negative = inhibition |
| --- | --- | --- |
| COc1ccc(S(=O)(=O)NC2CC3CCC2C3)cc1 (configuration not stated) | inconclusive: 16.4 µM [activator, partial curve, poor fit] | – |
| O=C(COC(=O)c1ccccn1)c1cccc(Br)c1 | – | inconclusive: -2.46% |
| CN(C)CCCNC(=O)N1c2ccccc2Sc2ccccc21 | – | inconclusive: 17.6% |
| CC(CC(=O)NCCc1ccc(S(N)(=O)=O)cc1)c1ccccc1 (configuration not stated) | – | inconclusive: 26.7% |
| COc1ccc(C(=O)OCCCc2cc3ccccc3c(=O)o2)cc1 | – | inconclusive: -9.14% |
| CC1CC(C)CN(C(=O)COC(=O)c2ccc3c(c2)OCO3)C1 (configuration not stated) | inconclusive: 23.1 µM [activator, partial curve] | – |
| CC1(C)Cc2c(cnn2-c2ccc(F)cc2)C(NC(=O)CN2CCCC2=O)C1 (configuration not stated) | inconclusive: 29.1 µM [falling, single point] | – |
| O=C(Nc1nccs1)c1ccc(Cl)c([N+](=O)[O-])c1 | inconclusive: 0.146 µM [falling, full curve] | – |
| COC(=O)c1ccccc1NC(=O)C/C(C)=N/NC(=O)Cc1ccc(Cl)cc1 | inconclusive: 6.51 µM [falling, single point] | – |
| CCOc1ccc(-c2nnc(SCc3nnc(-c4ccccc4)o3)n2-c2ccccc2F)cc1 | inconclusive: 29.1 µM [rising, single point] | – |
| COc1ccc(Cl)cc1NC(=O)CN(C)CC(=O)Nc1ccccc1-c1ccccc1 | – | inactive: 1.41% |
| Cc1ccc(/C=C2/Sc3ccc(C(=O)N4CCN(c5ccccn5)CC4)cc3NC2=O)cc1 | – | inconclusive: 15.8% |
| CCCn1c(N)c(N(CCOC)C(=O)c2ccc(N3CCCC3=O)cc2)c(=O)[nH]c1=O | – | inconclusive |
| COC(=O)c1ccc2c(c1)NC(=O)CS2 | – | inconclusive: 9.44% |
| CCOc1ccc(NC(=O)c2nccnc2CO)cc1 | – | inconclusive: -0.264% |
| COc1cccc(NS(=O)(=O)c2ccc3c(c2)CC(=O)N3)c1 | – | inconclusive: 30.4% |
| COC(=O)COc1ccc(C2Nc3c(Cl)ccc(C(=O)O)c3C3C=CCC32)cc1 (configuration not stated) | inconclusive: 6.51 µM [rising, single point] | – |
| CC1CC(C)CN(C(=O)C2CCCN(S(=O)(=O)c3cccc4nonc34)C2)C1 (configuration not stated) | inconclusive: 2.06 µM [activator, partial curve] | – |
| CCOC(=O)C1=C(COC(=O)c2nc(Cl)ccc2Cl)NC(=O)NC1C (configuration not stated) | – | inconclusive |
| CNC(=O)c1nc(C)c(C2(C)CC(c3ccccc3)=NO2)s1 (configuration not stated) | – | inconclusive: 19.6% |
| CCOC(=O)C1CCN(S(=O)(=O)c2cccc(-c3csc(C)n3)c2)CC1 | – | inconclusive: 57.9% |
| CCN(CC)S(=O)(=O)c1ccc(N/N=C/c2ccc(O)cc2)nc1 | – | inconclusive: 14.7% [at 9.22 µM] |
| CCOC(=O)C1CCCN(S(=O)(=O)c2cn(C)c(=O)n(C)c2=O)C1 (configuration not stated) | – | inconclusive: 1.32% |
| CC(C)(Oc1ccc(Cl)cc1)C(=O)N(Cc1ccccc1)c1ccccn1 | – | inconclusive: 14% |
| O=C(Nc1ccccc1C(=O)N1CCCCCC1)c1ccc(F)cc1 | inconclusive: 29.1 µM [rising, single point] | – |
